Reference: patent US6743947B1, “Electrochemically stable onium salts and electrolytes containing such for electrochemical capacitors” (The United States of America as represented by the …, priority 1999, dated 2004)
Some of these results come from one statement about several compounds together.

Assay: Electrochemical stability window by cyclic voltammetry (FIG. 4)
Type: physicochemical
Conditions: 50:50 EC:DMC, versus Et4NPF6 control; glassy carbon working electrode, Li reference

| Compound | extension of electrochemical stability window [V] |
| --- | --- |
| CC(C)C[N+](C)(CC(C)C)CC(C)C.F[P-](F)(F)(F)(F)F [iBu3MeN^+PF6^−, tri(iso-Butyl)methyl ammonium Hexafluorophosphate] | ≤ 0.5 |
| CCC[N+](C)(CCC)CCC.F[P-](F)(F)(F)(F)F [Pr3MeN^+PF6^−, Methyltripropylammonium Hexafluorophosphate] | ≤ 0.5 |
